Paper PMC10904051
Results are given in words; binding and its absence hold for the method and conditions named. Binding seen in cells or lysates may run through a third protein. Some results given as binding are weak or reduced against the parent protein; the word gives no strength.

Protein sequences, listed by entry. Tags and fused reporters are not part of them.
UniProt Q9CVD2: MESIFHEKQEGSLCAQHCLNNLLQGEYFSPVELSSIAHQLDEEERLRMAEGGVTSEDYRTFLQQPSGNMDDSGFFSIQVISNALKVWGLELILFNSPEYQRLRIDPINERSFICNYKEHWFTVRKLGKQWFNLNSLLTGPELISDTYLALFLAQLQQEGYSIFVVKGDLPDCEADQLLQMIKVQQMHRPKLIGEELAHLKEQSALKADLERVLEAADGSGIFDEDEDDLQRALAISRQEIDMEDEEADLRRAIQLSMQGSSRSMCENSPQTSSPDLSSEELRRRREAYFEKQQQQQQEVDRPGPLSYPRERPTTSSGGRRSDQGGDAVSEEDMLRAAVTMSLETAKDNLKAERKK
UniProt P54252: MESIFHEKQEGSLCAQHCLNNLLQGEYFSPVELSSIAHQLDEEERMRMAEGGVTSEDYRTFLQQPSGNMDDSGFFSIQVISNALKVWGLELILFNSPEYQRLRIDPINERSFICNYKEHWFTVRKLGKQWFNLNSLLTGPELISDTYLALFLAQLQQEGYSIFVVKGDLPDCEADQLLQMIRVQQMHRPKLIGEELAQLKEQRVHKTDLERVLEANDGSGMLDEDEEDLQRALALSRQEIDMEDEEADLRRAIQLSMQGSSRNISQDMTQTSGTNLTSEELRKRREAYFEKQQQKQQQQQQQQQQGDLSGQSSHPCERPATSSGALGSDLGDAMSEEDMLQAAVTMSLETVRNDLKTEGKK
UniProt P06537: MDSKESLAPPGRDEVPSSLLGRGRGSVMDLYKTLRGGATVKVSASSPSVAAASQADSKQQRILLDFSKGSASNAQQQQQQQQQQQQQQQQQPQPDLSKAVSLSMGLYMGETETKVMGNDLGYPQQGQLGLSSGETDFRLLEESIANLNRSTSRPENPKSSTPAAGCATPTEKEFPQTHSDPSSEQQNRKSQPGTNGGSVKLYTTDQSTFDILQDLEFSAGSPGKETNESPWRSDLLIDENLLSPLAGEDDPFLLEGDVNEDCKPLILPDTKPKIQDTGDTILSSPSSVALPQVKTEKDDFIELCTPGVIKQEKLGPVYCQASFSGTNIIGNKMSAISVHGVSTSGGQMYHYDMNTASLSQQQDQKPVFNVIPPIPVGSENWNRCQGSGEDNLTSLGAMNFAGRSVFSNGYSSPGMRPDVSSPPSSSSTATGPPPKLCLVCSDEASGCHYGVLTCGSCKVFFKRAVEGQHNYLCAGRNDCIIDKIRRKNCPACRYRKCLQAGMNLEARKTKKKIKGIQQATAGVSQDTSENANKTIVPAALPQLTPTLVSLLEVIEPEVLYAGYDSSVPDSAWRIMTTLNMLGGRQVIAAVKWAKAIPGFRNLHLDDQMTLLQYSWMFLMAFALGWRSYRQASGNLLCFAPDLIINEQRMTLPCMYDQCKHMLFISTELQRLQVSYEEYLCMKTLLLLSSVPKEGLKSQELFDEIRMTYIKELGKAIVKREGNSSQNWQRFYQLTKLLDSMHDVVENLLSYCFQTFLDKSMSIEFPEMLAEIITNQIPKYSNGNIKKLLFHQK
UniProt P04150: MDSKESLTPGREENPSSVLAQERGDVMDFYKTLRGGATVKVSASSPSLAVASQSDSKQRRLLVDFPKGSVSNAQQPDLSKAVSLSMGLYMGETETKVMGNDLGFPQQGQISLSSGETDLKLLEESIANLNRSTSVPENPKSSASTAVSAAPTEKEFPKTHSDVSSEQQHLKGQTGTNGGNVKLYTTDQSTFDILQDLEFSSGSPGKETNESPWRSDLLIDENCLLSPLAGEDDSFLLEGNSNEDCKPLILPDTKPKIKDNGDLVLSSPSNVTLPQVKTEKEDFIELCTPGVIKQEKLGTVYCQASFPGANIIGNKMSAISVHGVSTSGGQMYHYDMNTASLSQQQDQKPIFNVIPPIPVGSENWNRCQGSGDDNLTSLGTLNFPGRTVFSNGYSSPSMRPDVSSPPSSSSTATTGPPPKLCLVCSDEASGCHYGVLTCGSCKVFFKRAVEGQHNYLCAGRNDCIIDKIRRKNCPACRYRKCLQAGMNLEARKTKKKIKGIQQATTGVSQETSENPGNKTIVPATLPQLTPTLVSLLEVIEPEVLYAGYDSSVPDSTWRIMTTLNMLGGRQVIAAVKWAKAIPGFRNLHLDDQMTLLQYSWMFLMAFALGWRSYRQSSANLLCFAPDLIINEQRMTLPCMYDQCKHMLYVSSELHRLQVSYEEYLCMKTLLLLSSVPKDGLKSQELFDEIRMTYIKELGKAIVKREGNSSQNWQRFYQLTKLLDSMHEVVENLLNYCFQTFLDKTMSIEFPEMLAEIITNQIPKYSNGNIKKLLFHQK

What was measured:
[1] = biological target: ataxin-3 (ATXN3), endogenous, mouse brain (mouse (endogenous in mouse brain)) (UniProt Q9CVD2); test: co-IP; Dynabeads coupled with rabbit anti-ATXN3 (anti-MJD, MJD1-1) incubated with 2 mg lysate of cerebellum and brainstem of WT mice, 4°C, 16 h; lysis buffer 50 mM Tris-HCl, 150 mM NaCl, 1 mM EDTA, 10% glycerol, 1% NP-40; blot for GR and ATXN3 (1H9); rabbit IgG isotype control
[2] = biological target: ataxin-3 (ATXN3), endogenous, SH-SY5Y cells (human (endogenous in SH-SY5Y)) (UniProt P54252); test: proximity ligation; Duolink PLA in fixed, permeabilized SH-SY5Y cells; mouse anti-ATXN3 1H9 and rabbit anti-GR; controls: no primary antibodies, ATXN3 knock-down cells

Substance | binding [1] | binding [2]
glucocorticoid receptor (GR), endogenous, mouse brain (from UniProt P06537 1-792) | binds | 
glucocorticoid receptor (GR), endogenous, SH-SY5Y cells (from UniProt P04150 1-777) |  | binds
